# Cleaved PARP in drug-treated melanoma cells

Drug key:
STA-4783 (0.03 µM): CN(NC(=O)CC(=O)NN(C)C(=S)c1ccccc1)C(=S)c1ccccc1
CX-4945 (2 µM): O=C(O)c1ccc2c(c1)nc(Nc1cccc(Cl)c1)c1ccncc12
ruxolitinib (5 µM): N#CC[C@H](C1CCCC1)n1cc(-c2ncnc3[nH]ccc23)cn1
PF-562271 (0.4 µM): CN(c1ncccc1CNc1nc(Nc2ccc3c(c2)CC(=O)N3)ncc1C(F)(F)F)S(C)(=O)=O
sunitinib (2 µM): CCN(CC)CCNC(=O)c1c(C)[nH]c(/C=C2\C(=O)Nc3ccc(F)cc32)c1C
SU6656 (2 µM): CN(C)S(=O)(=O)c1ccc2c(c1)/C(=C/c1cc3c([nH]1)CCCC3)C(=O)N2
FH535 (5 µM): Cc1cc([N+](=O)[O-])ccc1NS(=O)(=O)c1cc(Cl)ccc1Cl
NVP-BEZ235 (0.02 µM): Cn1c(=O)n(-c2ccc(C(C)(C)C#N)cc2)c2c3cc(-c4cnc5ccccc5c4)ccc3ncc21
ENMD-2076 (0.2 µM): Cc1cc(Nc2cc(N3CCN(C)CC3)nc(/C=C/c3ccccc3)n2)n[nH]1
embelin (6 µM): CCCCCCCCCCCC1=C(O)C(=O)C=C(O)C1=O
darinaparsin (2 µM): C[As](C)SC[C@H](NC(=O)CC[C@H](N)C(=O)O)C(=O)NCC(=O)O

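The test systems are human melanoma cell lines, treated with a pair of drugs for 72 h and then stained and imaged. Each value is the cleaved-PARP-positive fraction of nuclei relative to DMSO-treated wells, in %, so that 100 equals the control and higher values mean more apoptosis. Concentrations were fixed for each drug; these are the higher of two levels. These are primary screening values without error estimates. The marker varies much from line to line, for technical or biological reasons.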 Only some of the drugs and lines screened are listed, without regard to their results.

Pair: PF-562271 + sunitinib
COLO 792: 186
SK-MEL-28: 60.1

Pair: NVP-BEZ235 + FH535
COLO 792: 230
SK-MEL-28: 121

Pair: PF-562271 + darinaparsin
COLO 792: 42.1
SK-MEL-28: 34.5

Pair: embelin + sunitinib
COLO 792: 248
SK-MEL-28: 137

Pair: FH535 + darinaparsin
COLO 792: 93.9
SK-MEL-28: 51.9

Pair: ENMD-2076 + PF-562271
COLO 792: 324
SK-MEL-28: 76.1

Pair: SU6656 + CX-4945
COLO 792: 362
SK-MEL-28: 300

Pair: ruxolitinib + STA-4783
COLO 792: 479
SK-MEL-28: 135

Pair: darinaparsin + ruxolitinib
COLO 792: 261
SK-MEL-28: 85.3

Pair: FH535 + sunitinib
COLO 792: 149
SK-MEL-28: 191

Pair: embelin + darinaparsin
COLO 792: 82.4
SK-MEL-28: 33.2

Pair: NVP-BEZ235 + sunitinib
COLO 792: 944
SK-MEL-28: 202

Pair: CX-4945 + ENMD-2076
COLO 792: 332
SK-MEL-28: 280

Pair: NVP-BEZ235 + CX-4945
COLO 792: 197
SK-MEL-28: 52.2

Pair: ENMD-2076 + embelin
COLO 792: 104
SK-MEL-28: 187

Pair: STA-4783 + ENMD-2076
COLO 792: 744
SK-MEL-28: 116

Pair: ruxolitinib + NVP-BEZ235
COLO 792: 453
SK-MEL-28: 126

Pair: darinaparsin + CX-4945
COLO 792: 99.1
SK-MEL-28: 77.2

Pair: FH535 + STA-4783
COLO 792: 9300
SK-MEL-28: 714

Pair: CX-4945 + STA-4783
COLO 792: 229
SK-MEL-28: 207

Pair: NVP-BEZ235 + STA-4783
COLO 792: 504
SK-MEL-28: 245

Pair: FH535 + ENMD-2076
COLO 792: 165
SK-MEL-28: 58.7

Pair: NVP-BEZ235 + SU6656
COLO 792: 212
SK-MEL-28: 83.8

Pair: SU6656 + STA-4783
COLO 792: 1140
SK-MEL-28: 156

Pair: darinaparsin + sunitinib
COLO 792: 180
SK-MEL-28: 140

Pair: ruxolitinib + ENMD-2076
COLO 792: 199
SK-MEL-28: 77.5

Pair: SU6656 + PF-562271
COLO 792: 162
SK-MEL-28: 152

Pair: PF-562271 + NVP-BEZ235
COLO 792: 98.2
SK-MEL-28: 251

Pair: darinaparsin + STA-4783
COLO 792: 262
SK-MEL-28: 647

Pair: FH535 + embelin
COLO 792: 143
SK-MEL-28: 62.3

4 of the entries, repeated:

{"pair": "NVP-BEZ235 + CX-4945", "COLO 792": 197, "SK-MEL-28": 52.2}
{"pair": "PF-562271 + darinaparsin", "COLO 792": 42.1, "SK-MEL-28": 34.5}
{"pair": "ENMD-2076 + PF-562271", "COLO 792": 324, "SK-MEL-28": 76.1}
{"pair": "ruxolitinib + STA-4783", "COLO 792": 479, "SK-MEL-28": 135}

Data from the primary screen of doi:10.1371/journal.pone.0140310, rounded.